Test results published in publication doi:10.1101/740472.
Read-outs that look alike come from different tables or passages of the source. Results are given in words; binding and its absence hold for the method and conditions named. In cells and extracts the contact can be indirect. Some entries that bind do so weakly or less than the wild type. Tags and fused reporters may be left off the sequences shown.

T1: HA-tagged human ISLR (hISLR-HA) (human) (UniProt O14498)
T1 sequence: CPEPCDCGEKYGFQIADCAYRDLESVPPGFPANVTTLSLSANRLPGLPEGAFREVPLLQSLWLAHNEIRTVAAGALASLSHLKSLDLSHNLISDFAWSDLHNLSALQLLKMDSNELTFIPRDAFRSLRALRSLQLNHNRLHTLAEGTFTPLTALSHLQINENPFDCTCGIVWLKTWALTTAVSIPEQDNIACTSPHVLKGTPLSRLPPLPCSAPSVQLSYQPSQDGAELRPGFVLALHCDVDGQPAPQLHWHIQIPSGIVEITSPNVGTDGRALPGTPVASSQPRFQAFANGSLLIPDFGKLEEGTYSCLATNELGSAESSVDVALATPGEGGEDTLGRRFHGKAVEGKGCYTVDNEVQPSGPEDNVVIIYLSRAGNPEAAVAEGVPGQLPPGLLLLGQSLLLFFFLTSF

B1: Flag-tagged FAT1 segment, Cadherin domain 13-15 (amino acids 1457-1765) (domain or fragment, UniProt Q14517 1457-1765)
chain: STSKYEVVIPEDTAPETEILQISAVDQDEKNKLIYTLQSSRDPLSLKKFRLDPATGSLYTSEKLDHEAVHQHTLTVMVRDQDVPVKRNFARIVVNVSDTNDHAPWFTASSYKGRVYESAAVGSVVLQVTALDKDKGKNAEVLYSIESGNIGNSFMIDPVLGSIKTAKELDRSNQAEYDLMVKATDKGSPPMSEITSVRIFVTIADNASPKFTSKEYSVELSETVSIGSFVGMVTAHSQSSVVYEIKDGNTGDAFDINPHSGTIITQKALDFETLPIYTLIIQGTNMAGLSTNTTVLVHLQDENDNAPVF

Columns and labels:
[1] = target: T1, HA-tagged human ISLR (hISLR-HA) (human); experiment: co-IP
[2] = target: T1, HA-tagged human ISLR (hISLR-HA) (human); experiment: co-IP; remark: listed apart in the source

Molecule	binding [1]	binding [2]
FAT1 (transmembrane protocadherin), endogenous (from UniProt Q14517 22-4588)	binds	
B1		binds
